This passage reports binding results from article PMC11463774, “Structure of the Nmd4-Upf1 complex supports conservation of the nonsense-mediated mRNA decay pathway between yeast and humans” (PLOS Biology, 2024).

No constants are given. Whether binding was seen depends on the method and setting. Sequences can lack the tags named with a protein.

The target of this test is T1, CBP-His6-ZZ-Nmd4 (S. cerevisiae) (S. cerevisiae) (UniProt Q12129).
T1 sequence: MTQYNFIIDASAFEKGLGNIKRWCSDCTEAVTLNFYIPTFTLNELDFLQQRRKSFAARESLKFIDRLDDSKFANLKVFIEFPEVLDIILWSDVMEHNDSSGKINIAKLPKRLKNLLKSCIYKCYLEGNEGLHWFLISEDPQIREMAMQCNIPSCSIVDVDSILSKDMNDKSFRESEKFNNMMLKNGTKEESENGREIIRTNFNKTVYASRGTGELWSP
Description: pull-down; CBP pull-down: 0.5 nmol CBP-His6-ZZ or CBP-His6-ZZ-Nmd4 with 0.5 nmol untagged Upf1-HD proteins, Calmodulin Sepharose 4B beads; 20 mM Hepes-NaOH pH 7.5, 125 mM NaCl, 2 mM CaCl2, 0.1% NP-40, 10% glycerol; Coomassie; both purified.

B1: untagged Upf1-HD G243R (domain or fragment, UniProt P30771 221-851)
chain: EQEAIPPLLLRYQDAYEYQRSYRPLIKLEADYDKQLKESQALEHISVSWSLALNNRHLASFTLSTFESNELKVAIGDEMILWYSGMQHPDWEGRGYIVRLPNSFQDTFTLELKPSKTPPPTHLTTGFTAEFIWKGTSYDRMQDALKKFAIDKKSISGYLYYKILGHQVVDISFDVPLPKEFSIPNFAQLNSSQSNAVSHVLQRPLSLIQGPPGTGKTVTSATIVYHLSKIHKDRILVCAPSNVAVDHLAAKLRDLGLKVVRLTAKSREDVESSVSNLALHNLVGRGAKGELKNLLKLKDEVGELSASDTKRFVKLVRKTEAEILNKADVVCCTCVGAGDKRLDTKFRTVLIDESTQASEPECLIPIVKGAKQVILVGDHQQLGPVILERKAADAGLKQSLFERLISLGHVPIRLEVQYRMNPYLSEFPSNMFYEGSLQNGVTIEQRTVPNSKFPWPIRGIPMMFWANYGREEISANGTSFLNRIEAMNCERIITKLFRDGVKPEQIGVITPYEGQRAYILQYMQMNGSLDKDLYIKVEVASVDAFQGREKDYIILSCVRANEQQAIGFLRDPRRLNVGLTRAKYGLVILGNPRSLARNTLWNHLLIHFREKGCLVEGTLDNLQLCTVQLVR
B1: the binding result was “no binding (tested: 0.5 nmol of each protein in 60 μL)”.

B2: untagged Upf1-HD G377R (domain or fragment, UniProt P30771 221-851)
chain: EQEAIPPLLLRYQDAYEYQRSYGPLIKLEADYDKQLKESQALEHISVSWSLALNNRHLASFTLSTFESNELKVAIGDEMILWYSGMQHPDWEGRGYIVRLPNSFQDTFTLELKPSKTPPPTHLTTGFTAEFIWKGTSYDRMQDALKKFAIDKKSISRYLYYKILGHQVVDISFDVPLPKEFSIPNFAQLNSSQSNAVSHVLQRPLSLIQGPPGTGKTVTSATIVYHLSKIHKDRILVCAPSNVAVDHLAAKLRDLGLKVVRLTAKSREDVESSVSNLALHNLVGRGAKGELKNLLKLKDEVGELSASDTKRFVKLVRKTEAEILNKADVVCCTCVGAGDKRLDTKFRTVLIDESTQASEPECLIPIVKGAKQVILVGDHQQLGPVILERKAADAGLKQSLFERLISLGHVPIRLEVQYRMNPYLSEFPSNMFYEGSLQNGVTIEQRTVPNSKFPWPIRGIPMMFWANYGREEISANGTSFLNRIEAMNCERIITKLFRDGVKPEQIGVITPYEGQRAYILQYMQMNGSLDKDLYIKVEVASVDAFQGREKDYIILSCVRANEQQAIGFLRDPRRLNVGLTRAKYGLVILGNPRSLARNTLWNHLLIHFREKGCLVEGTLDNLQLCTVQLVR
For the molecule B2, the binding entry is reported as “no binding (tested: 0.5 nmol of each protein in 60 μL)”.

B3: untagged Upf1-HD double mutant G243R/G377R (domain or fragment, UniProt P30771 221-851)
chain: EQEAIPPLLLRYQDAYEYQRSYRPLIKLEADYDKQLKESQALEHISVSWSLALNNRHLASFTLSTFESNELKVAIGDEMILWYSGMQHPDWEGRGYIVRLPNSFQDTFTLELKPSKTPPPTHLTTGFTAEFIWKGTSYDRMQDALKKFAIDKKSISRYLYYKILGHQVVDISFDVPLPKEFSIPNFAQLNSSQSNAVSHVLQRPLSLIQGPPGTGKTVTSATIVYHLSKIHKDRILVCAPSNVAVDHLAAKLRDLGLKVVRLTAKSREDVESSVSNLALHNLVGRGAKGELKNLLKLKDEVGELSASDTKRFVKLVRKTEAEILNKADVVCCTCVGAGDKRLDTKFRTVLIDESTQASEPECLIPIVKGAKQVILVGDHQQLGPVILERKAADAGLKQSLFERLISLGHVPIRLEVQYRMNPYLSEFPSNMFYEGSLQNGVTIEQRTVPNSKFPWPIRGIPMMFWANYGREEISANGTSFLNRIEAMNCERIITKLFRDGVKPEQIGVITPYEGQRAYILQYMQMNGSLDKDLYIKVEVASVDAFQGREKDYIILSCVRANEQQAIGFLRDPRRLNVGLTRAKYGLVILGNPRSLARNTLWNHLLIHFREKGCLVEGTLDNLQLCTVQLVR
B3: the binding entry was “no binding (tested: 0.5 nmol of each protein in 60 μL)”.
